Experimental data: publication PMC5945585
Results are given in words; binding and its absence hold for the method and conditions named. Binding seen in cells or lysates may run through a third protein. Some binding calls cover weakened binding; strength is not graded here. Where a sequence is shown, tags or fusion partners need not be part of it.

Sequences of proteins named here, by UniProt entry; tags and fusion partners are left off.
UniProt Q14781: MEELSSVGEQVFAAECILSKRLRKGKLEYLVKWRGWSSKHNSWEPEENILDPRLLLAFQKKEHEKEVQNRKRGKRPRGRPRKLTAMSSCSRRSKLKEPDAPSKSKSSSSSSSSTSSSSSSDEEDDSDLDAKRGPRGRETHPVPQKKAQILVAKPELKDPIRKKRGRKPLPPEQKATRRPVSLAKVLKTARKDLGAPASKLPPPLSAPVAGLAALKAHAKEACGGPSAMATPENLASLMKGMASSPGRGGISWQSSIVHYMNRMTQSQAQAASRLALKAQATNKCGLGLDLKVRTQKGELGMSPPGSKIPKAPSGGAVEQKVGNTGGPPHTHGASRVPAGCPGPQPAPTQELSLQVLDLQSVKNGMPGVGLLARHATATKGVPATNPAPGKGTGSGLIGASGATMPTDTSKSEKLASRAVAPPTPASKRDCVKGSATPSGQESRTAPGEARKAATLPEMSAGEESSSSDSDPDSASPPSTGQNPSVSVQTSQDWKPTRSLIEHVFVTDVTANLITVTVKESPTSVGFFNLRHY

Target: GFP-tagged CBX2 (transient, HEK293-FT) (human) (UniProt Q14781)
Assay: co-IP; IP and immunoblot from HEK293-FT cells transfected with GFP-tagged CBX2 alone or with FLAG-tagged CBX4

- binding: binds
B1: FLAG-tagged CBX4 (enzyme, UniProt O00257 1-560)
chain: MELPAVGEHVFAVESIEKKRIRKGRVEYLVKWRGWSPKYNTWEPEENILDPRLLIAFQNRERQEQLMGYRKRGPKPKPLVVQVPTFARRSNVLTGLQDSSTDNRAKLDLGAQGKGQGHQYELNSKKHHQYQPHSKERAGKPPPPGKSGKYYYQLNSKKHHPYQPDPKMYDLQYQGGHKEAPSPTCPDLGAKSHPPDKWAQGAGAKGYLGAVKPLAGAAGAPGKGSEKGPPNGMMPAPKEAVTGNGIGGKMKIVKNKNKNGRIVIVMSKYMENGMQAVKIKSGEVAEGEARSPSHKKRAADERHPPADRTFKKAAGAEEKKVEAPPKRREEEVSGVSDPQPQDAGSRKLSPTKEAFGEQPLQLTTKPDLLAWDPARNTHPPSHHPHPHPHHHHHHHHHHHHAVGLNLSHVRKRCLSETHGEREPCKKRLTARSISTPTCLGGSPAAERPADLPPAAALPQPEVILLDSDLDEPIDLRCVKTRSEAGEPPSSLQVKPETPASAAVAVAAAAAPTTTAEKPPAEAQDEPAESLSEFKPFFGNIIITDVTANCLTVTFKEYVTV
